The text below walks through data of patent publication US20260184786A1 (LINDIS BIOTECH, published 2026).

Amino acid sequences for entries named in this document (tags omitted). A change or cut given only in a name is not applied to a line headed by its entry. Residues count along the entry.
UniProt P02769, residues 25-607: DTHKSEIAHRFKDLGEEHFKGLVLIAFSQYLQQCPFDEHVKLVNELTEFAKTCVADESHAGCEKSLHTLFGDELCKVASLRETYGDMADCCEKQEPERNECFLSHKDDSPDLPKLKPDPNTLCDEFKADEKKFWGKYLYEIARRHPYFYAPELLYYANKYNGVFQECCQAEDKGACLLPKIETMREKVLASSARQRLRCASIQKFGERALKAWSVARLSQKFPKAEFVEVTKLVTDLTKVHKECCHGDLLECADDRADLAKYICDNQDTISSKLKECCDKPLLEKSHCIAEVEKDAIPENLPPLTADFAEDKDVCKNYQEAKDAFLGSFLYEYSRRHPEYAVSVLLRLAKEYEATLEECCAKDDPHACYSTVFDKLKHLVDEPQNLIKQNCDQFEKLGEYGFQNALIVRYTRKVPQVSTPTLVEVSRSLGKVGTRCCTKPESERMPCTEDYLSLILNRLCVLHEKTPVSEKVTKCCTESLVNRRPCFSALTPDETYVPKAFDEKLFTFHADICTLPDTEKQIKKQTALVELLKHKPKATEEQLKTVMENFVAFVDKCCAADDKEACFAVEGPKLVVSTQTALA
UniProt P07766: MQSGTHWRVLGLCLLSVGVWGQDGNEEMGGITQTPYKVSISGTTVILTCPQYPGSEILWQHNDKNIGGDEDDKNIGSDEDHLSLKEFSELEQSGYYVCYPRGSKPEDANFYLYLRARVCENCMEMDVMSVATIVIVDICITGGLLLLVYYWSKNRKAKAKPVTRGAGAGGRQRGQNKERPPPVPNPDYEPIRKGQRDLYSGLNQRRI
UniProt P09693: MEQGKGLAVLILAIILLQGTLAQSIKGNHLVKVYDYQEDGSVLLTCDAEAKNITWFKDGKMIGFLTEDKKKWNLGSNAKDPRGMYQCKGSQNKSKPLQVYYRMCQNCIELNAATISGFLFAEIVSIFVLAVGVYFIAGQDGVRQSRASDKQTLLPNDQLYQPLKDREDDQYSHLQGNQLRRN
UniProt P04234: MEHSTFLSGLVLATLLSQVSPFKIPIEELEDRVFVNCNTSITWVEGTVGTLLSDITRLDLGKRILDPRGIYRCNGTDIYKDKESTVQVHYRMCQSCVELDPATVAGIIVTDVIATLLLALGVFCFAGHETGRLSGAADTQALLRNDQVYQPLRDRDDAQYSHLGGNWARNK

No constants are given. Whether binding was seen depends on the method and setting. Some binding calls cover weakened binding; strength is not graded here.

B1: VH_V2_VL_V5 (antibody, V domains shown)
VH: EVQLVESGGGLVQPGRSLRLSCAASGFTFNNYWMSWVRQAPGKGLEWVSAITKTGGSTYYPDSVKGRFTISRDNSKSTLYLQMNSLRAEDTATYYCTREYYYDPYIDYWGQGVLVTVSS
VL: QSALTQPRSVSGSPGQSVTISCTRTTGNIGSNYVNWYQQHPGKAPKTMIYRDDKRPSGVPDRFSGSIDSSSNTASLTISGLQAEDEADYYCQSYSSGINIFGGGTKLTVL
B2: VH_V4_VL_V2 (antibody, V domains shown)
VH: EVQLVESGGGLVQPGGSLRLSCAASGFTFNNYWMTWIRQAPGKGLEWVASITKTGGSTYYPDSVKGRFTISRDNSKSTLYLQMNSLRAEDTAVYYCTREYYYDPYIDYWGQGTLVTVSS
VL: QFALTQPRSVSGNLGSSVKISCKRTTGNIGSNYVNWYQQHEGKAPTTMIYRDDKRPDGVPDRFSGSKDRSGNTALLTINNLQTEDEADYYCQSYSSGINIFGGGTKLTVL
B3: VH_V2_VL_V1 (antibody, V domains shown)
VH: EVQLVESGGGLVQPGRSLRLSCAASGFTFNNYWMSWVRQAPGKGLEWVSAITKTGGSTYYPDSVKGRFTISRDNSKSTLYLQMNSLRAEDTATYYCTREYYYDPYIDYWGQGVLVTVSS
VL: QSALTQPRSVSGSPGQSVTISCTGTTGNIGSNYVSWYQQHPGKAPKLMIYRDDKRPSGVPDRFSGSKSGNTASLTISGLQAEDEADYYCQSYSSGINIFGGGTKLTVL
B4: VH_V3_VL_V5 (antibody, V domains shown)
VH: EVQLVESGGGLVQPGRSLRLSCAASGFTFNNYWMSWVRQAPGKGLEWVASITKTGGSTYYPDSVKGRFTISRDNAKSTLYLQMNSLRSEDTATYYCTREYYYDPYIDYWGQGVLVTVSS
VL: QSALTQPRSVSGSPGQSVTISCTRTTGNIGSNYVNWYQQHPGKAPKTMIYRDDKRPSGVPDRFSGSIDSSSNTASLTISGLQAEDEADYYCQSYSSGINIFGGGTKLTVL
B5: VH_V2_VL_V2 (antibody, V domains shown)
VH: EVQLVESGGGLVQPGRSLRLSCAASGFTFNNYWMSWVRQAPGKGLEWVSAITKTGGSTYYPDSVKGRFTISRDNSKSTLYLQMNSLRAEDTATYYCTREYYYDPYIDYWGQGVLVTVSS
VL: QFALTQPRSVSGNLGSSVKISCKRTTGNIGSNYVNWYQQHEGKAPTTMIYRDDKRPDGVPDRFSGSKDRSGNTALLTINNLQTEDEADYYCQSYSSGINIFGGGTKLTVL
notes: also called HV2-LV2
B6: VH_V4_VL_V5 (antibody, V domains shown)
VH: EVQLVESGGGLVQPGGSLRLSCAASGFTFNNYWMTWIRQAPGKGLEWVASITKTGGSTYYPDSVKGRFTISRDNSKSTLYLQMNSLRAEDTAVYYCTREYYYDPYIDYWGQGTLVTVSS
VL: QSALTQPRSVSGSPGQSVTISCTRTTGNIGSNYVNWYQQHPGKAPKTMIYRDDKRPSGVPDRFSGSIDSSSNTASLTISGLQAEDEADYYCQSYSSGINIFGGGTKLTVL
B7: VH_V4_VL_V1 (antibody, V domains shown)
VH: EVQLVESGGGLVQPGGSLRLSCAASGFTFNNYWMTWIRQAPGKGLEWVASITKTGGSTYYPDSVKGRFTISRDNSKSTLYLQMNSLRAEDTAVYYCTREYYYDPYIDYWGQGTLVTVSS
VL: QSALTQPRSVSGSPGQSVTISCTGTTGNIGSNYVSWYQQHPGKAPKLMIYRDDKRPSGVPDRFSGSKSGNTASLTISGLQAEDEADYYCQSYSSGINIFGGGTKLTVL
notes: also called HV4-LV1
B8: VH_V1_VL_V2 (antibody, V domains shown)
VH: EVQLVESGGGLVQPGGSLRLSCAASGFTFNNYWMSWVRQAPGKGLEWVSAITKTGGSTYYADSVKGRFTISRDNSKNTLYLQMNSLRAEDTAVYYCTREYYYDPYIDYWGQGTLVTVSS
VL: QFALTQPRSVSGNLGSSVKISCKRTTGNIGSNYVNWYQQHEGKAPTTMIYRDDKRPDGVPDRFSGSKDRSGNTALLTINNLQTEDEADYYCQSYSSGINIFGGGTKLTVL
B9: VH_V3_VL_V1 (antibody, V domains shown)
VH: EVQLVESGGGLVQPGRSLRLSCAASGFTFNNYWMSWVRQAPGKGLEWVASITKTGGSTYYPDSVKGRFTISRDNAKSTLYLQMNSLRSEDTATYYCTREYYYDPYIDYWGQGVLVTVSS
VL: QSALTQPRSVSGSPGQSVTISCTGTTGNIGSNYVSWYQQHPGKAPKLMIYRDDKRPSGVPDRFSGSKSGNTASLTISGLQAEDEADYYCQSYSSGINIFGGGTKLTVL
notes: also called HV3-LV1
B10: VH_V3_VL_V2 (antibody, V domains shown)
VH: EVQLVESGGGLVQPGRSLRLSCAASGFTFNNYWMSWVRQAPGKGLEWVASITKTGGSTYYPDSVKGRFTISRDNAKSTLYLQMNSLRSEDTATYYCTREYYYDPYIDYWGQGVLVTVSS
VL: QFALTQPRSVSGNLGSSVKISCKRTTGNIGSNYVNWYQQHEGKAPTTMIYRDDKRPDGVPDRFSGSKDRSGNTALLTINNLQTEDEADYYCQSYSSGINIFGGGTKLTVL
notes: also called HV3-LV2
B11: C3002HC-SLV1 (antibody, V domains shown)
VH: EVQLVESGGGLVQPGGSLRLSCAASGFTFNNYWMTWIRQAPGKGLEWVASITKTGGSTYYPDSVKGRFTISRDNAKNSLYLQMNSLRAEDTAVYYCTREYYYDPYIDYWGQGTMVTVSS
VL: NFMLTQPHSVSESPGKTVTISCTRSTGNIGSNYVQWYQQRPGSSPTTVIYRDDQRPSGVPDRFSGSIDSSSNSASLTISGLKTEDEADYYCQSYSSGINIFGGGTKLTVL
B12: HV3-SLV1 (antibody, V domains shown)
VH: EVQLVESGGGLVQPGRSLRLSCAASGFTFNNYWMSWVRQAPGKGLEWVASITKTGGSTYYPDSVKGRFTISRDNAKSTLYLQMNSLRSEDTATYYCTREYYYDPYIDYWGQGVLVTVSS
VL: NFMLTQPHSVSESPGKTVTISCTRSTGNIGSNYVQWYQQRPGSSPTTVIYRDDQRPSGVPDRFSGSIDSSSNSASLTISGLKTEDEADYYCQSYSSGINIFGGGTKLTVL
B13: HV1-SLV1 (antibody, V domains shown)
VH: EVQLVESGGGLVQPGGSLRLSCAASGFTFNNYWMSWVRQAPGKGLEWVSAITKTGGSTYYADSVKGRFTISRDNSKNTLYLQMNSLRAEDTAVYYCTREYYYDPYIDYWGQGTLVTVSS
VL: NFMLTQPHSVSESPGKTVTISCTRSTGNIGSNYVQWYQQRPGSSPTTVIYRDDQRPSGVPDRFSGSIDSSSNSASLTISGLKTEDEADYYCQSYSSGINIFGGGTKLTVL
B14: HV4-SLV1 (antibody, V domains shown)
VH: EVQLVESGGGLVQPGGSLRLSCAASGFTFNNYWMTWIRQAPGKGLEWVASITKTGGSTYYPDSVKGRFTISRDNSKSTLYLQMNSLRAEDTAVYYCTREYYYDPYIDYWGQGTLVTVSS
VL: NFMLTQPHSVSESPGKTVTISCTRSTGNIGSNYVQWYQQRPGSSPTTVIYRDDQRPSGVPDRFSGSIDSSSNSASLTISGLKTEDEADYYCQSYSSGINIFGGGTKLTVL
B15: C3002-2-HC-SLV1 (antibody, V domains shown)
VH: EVQLVESGGGLVQPGGSLRLSCAASGFTFNNYWMTWIRQAPGKGLEWVASITKTGGSTYYPDSVKGRFTISRDNAKNSLYLQMNSLRAEDTATYYCTREYYYDPYIDYWGQGVMVTVSS
VL: NFMLTQPHSVSESPGKTVTISCTRSTGNIGSNYVQWYQQRPGSSPTTVIYRDDQRPSGVPDRFSGSIDSSSNSASLTISGLKTEDEADYYCQSYSSGINIFGGGTKLTVL
B16: HV2-SLV1 (antibody, V domains shown)
VH: EVQLVESGGGLVQPGRSLRLSCAASGFTFNNYWMSWVRQAPGKGLEWVSAITKTGGSTYYPDSVKGRFTISRDNSKSTLYLQMNSLRAEDTATYYCTREYYYDPYIDYWGQGVLVTVSS
VL: NFMLTQPHSVSESPGKTVTISCTRSTGNIGSNYVQWYQQRPGSSPTTVIYRDDQRPSGVPDRFSGSIDSSSNSASLTISGLKTEDEADYYCQSYSSGINIFGGGTKLTVL
B17: SHV1-LV4 (antibody, V domains shown)
VH: EVQLVESGGGLVQPGGSLRLSCAASGFTFNNYWMSWVRQAPGKGLEWVANITKTGGSTYYVDSVKGRFTISRDNAKNSLYLQMNSLRAEDTAVYYCTREYYYDPYIDYWGQGTMVTVSS
VL: QFALTQPRSVSGSLGQSVTLSCTRTTGNIGSNYVNWYQQHEGKAPKTMIYRDDKRPSGVPDRFSGSIDRSSNTASLTISGVQAEDEADYYCQSYSSGINIFGGGTKLTVL
B18: C3002HC-LV4 (antibody, V domains shown)
VH: EVQLVESGGGLVQPGGSLRLSCAASGFTFNNYWMTWIRQAPGKGLEWVASITKTGGSTYYPDSVKGRFTISRDNAKNSLYLQMNSLRAEDTAVYYCTREYYYDPYIDYWGQGTMVTVSS
VL: QFALTQPRSVSGSLGQSVTLSCTRTTGNIGSNYVNWYQQHEGKAPKTMIYRDDKRPSGVPDRFSGSIDRSSNTASLTISGVQAEDEADYYCQSYSSGINIFGGGTKLTVL
B19: C3002-2-HC-LV4 (antibody, V domains shown)
VH: EVQLVESGGGLVQPGGSLRLSCAASGFTFNNYWMTWIRQAPGKGLEWVASITKTGGSTYYPDSVKGRFTISRDNAKNSLYLQMNSLRAEDTATYYCTREYYYDPYIDYWGQGVMVTVSS
VL: QFALTQPRSVSGSLGQSVTLSCTRTTGNIGSNYVNWYQQHEGKAPKTMIYRDDKRPSGVPDRFSGSIDRSSNTASLTISGVQAEDEADYYCQSYSSGINIFGGGTKLTVL

One assay addresses BSA (bovine) (UniProt P02769). As to the kind of experiment: ELISA of Example 2, curve labelled BSA in the panel's legend box.
In the case of B1, the binding result is given as “no binding (tested: 10 µg/ml)”.
The same measure, in the same setting: with B2 the entry was “no binding (tested: 10 µg/ml)”; with B3, “no binding (tested: 10 µg/ml)”.
Same read-out and setting: with B4 the entry was “no binding (tested: 10 µg/ml)”.
As for B5, the binding result is “no binding (tested: 10 µg/ml)”.
Turning to B6, the binding entry is “no binding (tested: 10 µg/ml)”.
On the same count and under the same terms, then B7, with “no binding (tested: 10 µg/ml)”; and B8, with “no binding (tested: 10 µg/ml)”; and B9, with “no binding (tested: 10 µg/ml)”.
As for B10, the binding result is on record as “no binding (tested: 10 µg/ml)”.

A further assay deals with T1, CD3 on Jurkat cells (human, UniProt P07766;P09693;P04234).
T1 construct: on the surface of Jurkat cells
As to the kind of experiment: flow cytometry on Jurkat cells, FITC-labelled secondary antibody, MFI (Example 3). Background: A flow cytometer gives signals particle by particle.
With B11, the binding entry is recorded as “binds”.
On the same count and under the same terms, with B12 the entry was “binds”; with B13, “binds”.
The same measure, in the same setting: then B14, with “binds”; and B15, with “binds”.
As to B16, the binding entry was “binds”.
As for B17, the binding entry was “binds”.
On the same count and under the same terms, with B18 the entry was “binds”.
The same measure, in the same setting: then B19, with “binds”.

For another assay, the target named is T2, Human CD3E & CD3G (human, UniProt P07766;P09693).
T2 construct: recombinant, tag given as Lama Fc; also called CD3E & CD3G heterodimer protein; CD3E/G antigen
As to the kind of experiment: ELISA, plate coated with CD3E & CD3G heterodimer protein (100 ng/well), anti-His tag HRP detection (Example 2). In general terms: In an ELISA, binding on a coated surface is turned into a signal by an enzyme label.
Regarding B1, the binding entry is “binds”.
For the molecule B2, the binding entry is “binds”.
Same read-out and setting: then B4, with “binds”.
